From the supplement of paper PMC6411743
± gives the standard deviation of the averaged measurements. The list shows a part of the results.

Amino acid sequences for entries named in this document (tags omitted). A change or cut given only in a name is not applied to a line headed by its entry.
UniProt Q15653: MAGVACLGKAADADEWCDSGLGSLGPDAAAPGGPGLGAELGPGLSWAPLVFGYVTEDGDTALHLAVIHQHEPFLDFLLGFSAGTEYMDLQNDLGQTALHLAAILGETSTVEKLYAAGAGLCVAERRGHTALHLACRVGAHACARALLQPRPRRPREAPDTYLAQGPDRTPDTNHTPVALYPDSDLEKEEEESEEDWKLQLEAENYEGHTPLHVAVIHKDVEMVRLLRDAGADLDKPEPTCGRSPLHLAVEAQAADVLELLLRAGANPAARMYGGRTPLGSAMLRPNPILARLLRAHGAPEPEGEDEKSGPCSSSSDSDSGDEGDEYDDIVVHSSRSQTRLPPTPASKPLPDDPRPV
UniProt P51159: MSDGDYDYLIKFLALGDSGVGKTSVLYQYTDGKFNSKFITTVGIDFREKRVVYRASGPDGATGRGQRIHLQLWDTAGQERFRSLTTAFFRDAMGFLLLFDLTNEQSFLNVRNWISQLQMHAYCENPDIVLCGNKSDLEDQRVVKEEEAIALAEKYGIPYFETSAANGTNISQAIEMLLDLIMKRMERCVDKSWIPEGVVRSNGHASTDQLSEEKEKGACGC
UniProt Q9BVW5: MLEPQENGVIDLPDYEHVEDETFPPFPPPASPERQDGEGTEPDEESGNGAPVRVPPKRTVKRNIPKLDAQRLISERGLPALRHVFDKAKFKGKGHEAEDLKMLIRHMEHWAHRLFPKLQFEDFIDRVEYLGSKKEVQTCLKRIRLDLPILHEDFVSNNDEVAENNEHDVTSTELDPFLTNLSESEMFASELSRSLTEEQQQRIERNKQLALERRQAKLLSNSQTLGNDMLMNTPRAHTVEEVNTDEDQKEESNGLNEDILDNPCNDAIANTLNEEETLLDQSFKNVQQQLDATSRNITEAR
UniProt Q9UJV9: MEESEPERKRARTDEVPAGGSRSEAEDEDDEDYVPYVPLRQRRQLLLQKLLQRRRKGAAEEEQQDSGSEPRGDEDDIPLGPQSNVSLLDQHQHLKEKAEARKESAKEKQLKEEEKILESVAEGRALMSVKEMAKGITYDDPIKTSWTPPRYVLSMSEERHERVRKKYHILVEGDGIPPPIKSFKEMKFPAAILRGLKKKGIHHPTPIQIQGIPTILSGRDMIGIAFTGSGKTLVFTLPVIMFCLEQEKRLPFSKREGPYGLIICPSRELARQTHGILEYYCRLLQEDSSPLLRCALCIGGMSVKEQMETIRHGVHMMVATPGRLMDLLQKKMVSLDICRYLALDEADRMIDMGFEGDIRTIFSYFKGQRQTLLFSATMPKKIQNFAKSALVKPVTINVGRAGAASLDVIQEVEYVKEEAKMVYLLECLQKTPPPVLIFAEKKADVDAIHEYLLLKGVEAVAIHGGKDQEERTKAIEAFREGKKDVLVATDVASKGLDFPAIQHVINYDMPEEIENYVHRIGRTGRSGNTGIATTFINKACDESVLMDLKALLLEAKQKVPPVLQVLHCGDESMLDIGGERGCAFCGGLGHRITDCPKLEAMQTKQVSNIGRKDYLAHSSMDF
UniProt Q9BQE5: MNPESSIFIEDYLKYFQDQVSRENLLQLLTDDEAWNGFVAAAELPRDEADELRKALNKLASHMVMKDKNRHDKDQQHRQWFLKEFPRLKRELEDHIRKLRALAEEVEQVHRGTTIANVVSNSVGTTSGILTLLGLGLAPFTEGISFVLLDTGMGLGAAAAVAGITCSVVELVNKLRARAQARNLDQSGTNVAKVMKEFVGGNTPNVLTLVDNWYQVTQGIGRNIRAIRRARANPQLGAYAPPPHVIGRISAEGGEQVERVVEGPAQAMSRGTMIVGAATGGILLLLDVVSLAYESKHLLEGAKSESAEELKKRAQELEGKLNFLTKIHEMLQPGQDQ
UniProt Q9NVS9: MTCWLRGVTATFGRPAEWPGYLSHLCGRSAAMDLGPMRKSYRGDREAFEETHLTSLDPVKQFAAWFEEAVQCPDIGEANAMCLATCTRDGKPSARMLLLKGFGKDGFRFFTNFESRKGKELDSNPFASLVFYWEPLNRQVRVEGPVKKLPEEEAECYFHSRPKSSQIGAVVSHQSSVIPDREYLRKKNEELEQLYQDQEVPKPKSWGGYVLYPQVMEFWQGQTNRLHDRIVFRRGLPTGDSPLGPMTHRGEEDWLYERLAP
UniProt Q9Y4L1: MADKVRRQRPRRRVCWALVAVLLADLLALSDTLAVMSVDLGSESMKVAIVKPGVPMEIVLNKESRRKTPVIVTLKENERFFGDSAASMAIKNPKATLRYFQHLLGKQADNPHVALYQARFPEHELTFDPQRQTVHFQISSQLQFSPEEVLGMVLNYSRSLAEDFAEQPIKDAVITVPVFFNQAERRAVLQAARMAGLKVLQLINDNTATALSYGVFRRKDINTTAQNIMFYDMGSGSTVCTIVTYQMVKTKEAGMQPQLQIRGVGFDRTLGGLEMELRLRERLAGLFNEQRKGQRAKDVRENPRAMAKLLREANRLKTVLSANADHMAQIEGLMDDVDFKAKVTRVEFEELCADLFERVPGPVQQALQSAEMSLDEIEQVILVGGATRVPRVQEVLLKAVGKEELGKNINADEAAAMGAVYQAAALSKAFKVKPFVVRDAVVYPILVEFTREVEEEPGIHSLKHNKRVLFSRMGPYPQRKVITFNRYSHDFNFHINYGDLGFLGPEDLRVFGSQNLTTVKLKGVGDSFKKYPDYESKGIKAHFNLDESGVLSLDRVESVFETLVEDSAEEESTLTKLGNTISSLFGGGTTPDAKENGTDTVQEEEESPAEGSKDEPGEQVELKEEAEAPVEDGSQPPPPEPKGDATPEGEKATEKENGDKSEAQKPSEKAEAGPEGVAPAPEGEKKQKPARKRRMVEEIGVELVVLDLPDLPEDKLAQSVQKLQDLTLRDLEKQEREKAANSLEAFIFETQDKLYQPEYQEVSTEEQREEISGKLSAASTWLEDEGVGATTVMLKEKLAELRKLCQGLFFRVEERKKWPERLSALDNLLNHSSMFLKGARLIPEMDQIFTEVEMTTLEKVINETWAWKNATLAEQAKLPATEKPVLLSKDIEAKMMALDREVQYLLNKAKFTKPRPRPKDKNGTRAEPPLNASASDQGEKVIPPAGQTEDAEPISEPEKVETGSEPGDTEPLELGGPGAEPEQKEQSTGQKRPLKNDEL
UniProt Q9NUV9: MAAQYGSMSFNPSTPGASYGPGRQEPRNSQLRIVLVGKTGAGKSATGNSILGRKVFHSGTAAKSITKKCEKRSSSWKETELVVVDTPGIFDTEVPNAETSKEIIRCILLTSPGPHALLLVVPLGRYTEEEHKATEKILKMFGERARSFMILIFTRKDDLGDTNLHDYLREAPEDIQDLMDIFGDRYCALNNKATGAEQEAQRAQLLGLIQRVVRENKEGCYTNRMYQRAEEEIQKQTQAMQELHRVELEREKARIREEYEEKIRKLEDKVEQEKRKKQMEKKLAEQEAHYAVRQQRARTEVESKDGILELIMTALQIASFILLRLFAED
UniProt Q9UK73, whole entry: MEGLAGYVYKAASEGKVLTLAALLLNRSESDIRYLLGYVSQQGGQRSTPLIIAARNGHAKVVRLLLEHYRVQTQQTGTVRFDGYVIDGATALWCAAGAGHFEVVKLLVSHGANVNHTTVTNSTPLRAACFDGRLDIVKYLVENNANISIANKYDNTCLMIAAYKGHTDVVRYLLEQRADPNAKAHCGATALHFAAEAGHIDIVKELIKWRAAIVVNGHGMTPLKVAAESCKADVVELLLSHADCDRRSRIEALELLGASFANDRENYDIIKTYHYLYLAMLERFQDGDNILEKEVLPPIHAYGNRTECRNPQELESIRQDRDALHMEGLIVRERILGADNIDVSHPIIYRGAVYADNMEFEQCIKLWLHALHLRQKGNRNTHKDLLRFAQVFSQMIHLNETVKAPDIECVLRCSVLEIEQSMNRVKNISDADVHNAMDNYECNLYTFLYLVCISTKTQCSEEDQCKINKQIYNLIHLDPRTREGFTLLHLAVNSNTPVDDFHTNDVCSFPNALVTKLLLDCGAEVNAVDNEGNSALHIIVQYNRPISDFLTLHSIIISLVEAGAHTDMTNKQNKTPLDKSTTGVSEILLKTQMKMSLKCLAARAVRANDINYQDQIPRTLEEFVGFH
UniProt P63241: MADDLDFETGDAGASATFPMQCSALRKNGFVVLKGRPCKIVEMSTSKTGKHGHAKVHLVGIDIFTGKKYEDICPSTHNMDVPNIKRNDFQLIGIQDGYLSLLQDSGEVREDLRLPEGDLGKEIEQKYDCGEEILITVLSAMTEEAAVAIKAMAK
UniProt Q9NVR2, whole entry: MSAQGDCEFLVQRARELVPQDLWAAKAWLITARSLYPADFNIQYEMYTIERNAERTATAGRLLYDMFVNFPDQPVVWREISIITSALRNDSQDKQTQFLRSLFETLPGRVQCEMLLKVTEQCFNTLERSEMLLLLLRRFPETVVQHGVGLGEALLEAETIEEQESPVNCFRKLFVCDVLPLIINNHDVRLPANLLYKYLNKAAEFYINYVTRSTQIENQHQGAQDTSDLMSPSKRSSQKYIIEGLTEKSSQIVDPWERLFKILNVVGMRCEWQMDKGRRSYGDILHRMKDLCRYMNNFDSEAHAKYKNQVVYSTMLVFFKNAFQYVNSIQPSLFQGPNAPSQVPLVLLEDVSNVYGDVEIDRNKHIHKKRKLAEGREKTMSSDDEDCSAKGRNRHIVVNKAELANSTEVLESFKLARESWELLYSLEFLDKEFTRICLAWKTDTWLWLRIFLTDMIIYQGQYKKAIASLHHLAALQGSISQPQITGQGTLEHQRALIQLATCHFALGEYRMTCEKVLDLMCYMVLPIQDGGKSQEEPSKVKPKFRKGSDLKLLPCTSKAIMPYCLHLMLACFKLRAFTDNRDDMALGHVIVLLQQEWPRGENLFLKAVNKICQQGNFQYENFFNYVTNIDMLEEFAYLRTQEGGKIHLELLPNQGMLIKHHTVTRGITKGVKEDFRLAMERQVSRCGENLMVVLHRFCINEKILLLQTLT
UniProt O15155: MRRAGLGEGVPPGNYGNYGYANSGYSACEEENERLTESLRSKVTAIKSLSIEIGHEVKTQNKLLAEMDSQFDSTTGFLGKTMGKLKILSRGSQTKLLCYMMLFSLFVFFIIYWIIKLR

Compound: Nc1nc2c(ncn2[C@@H]2O[C@H](COP(=O)(O)OP(=O)(O)OP(=O)(O)O)[C@@H](O)[C@H]2O)c(=O)[nH]1 [guanosine triphosphate]
Assay: NP40-soluble protein abundance relative to vehicle (solubility fold change) (ratio); higher = more soluble protein in presence of GTP
Method in brief: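 Values are fold changes against the detergent-processed vehicle, based on vsn-normalised intensities. Jurkat crude lysate was treated at eight concentrations from 0.1 to 10 mM (10 min at room temperature, then 3 min at 37 °C), solubilised with 0.8% NP40 and benzonase, ultracentrifuged and analysed by TMT-labelled LC-MS/MS over three independent experiments.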

| Target | NP40-soluble protein abundance (concentration: 0.1mM) | NP40-soluble protein abundance (concentration: 0.5mM) | NP40-soluble protein abundance (concentration: 1mM) | NP40-soluble protein abundance (concentration: 2mM) | NP40-soluble protein abundance (concentration: 4mM) | NP40-soluble protein abundance (concentration: 6mM) | NP40-soluble protein abundance (concentration: 8mM) | NP40-soluble protein abundance (concentration: 10mM) |
| --- | --- | --- | --- | --- | --- | --- | --- | --- |
| G5E9C2 and related entries (UniProt Q15653) | 1.04 ± 0.12 | 0.975 ± 0.12 | 0.999 ± 0.07 | 0.984 ± 0.07 | 0.982 ± 0.054 | 0.95 ± 0.069 | 0.9806 ± 0.0057 | 0.947 ± 0.03 |
| J3QR07 and related entries (UniProt Q96MU7) | 0.992 ± 0.046 | 1.02 ± 0.03 | 1.09 ± 0.017 | 1.09 ± 0.051 | 1.07 ± 0.075 | 1.09 ± 0.077 | 1.19 ± 0.16 | 1.32 ± 0.2 |
| H3BN55 and related entries (UniProt P51159) | 0.953 ± 0.063 | 0.982 ± 0.033 | 0.9 ± 0.05 | 0.896 ± 0.0094 | 0.9 ± 0.064 | 0.904 ± 0.013 | 0.808 ± 0.056 | 0.859 ± 0.039 |
| H3BU04 and related entries (UniProt Q9BVW5) | 0.848 ± 0.15 | 0.761 ± 0.13 | 0.964 ± 0.068 | 0.987 ± 0.041 | 0.941 ± 0.1 | 0.981 ± 0.11 | 0.834 ± 0.16 | 1.01 ± 0.081 |
| J3KNN5 and related entries (UniProt Q9UJV9) | 1.08 ± 0.029 | 1.28 ± 0.14 | 1.25 ± 0.14 | 1.28 ± 0.13 | 1.28 ± 0.14 | 1.37 ± 0.16 | 1.39 ± 0.15 | 1.48 ± 0.21 |
| J3KQL8 and related entries (UniProt Q9BQE5) | 0.987 ± 0.019 | 1.01 ± 0.041 | 0.984 ± 0.054 | 0.956 ± 0.058 | 0.917 ± 0.044 | 0.982 ± 0.05 | 0.957 ± 0.045 | 0.928 ± 0.051 |
| J3QQV6 and related entries (UniProt Q9NVS9) | 0.932 ± 0.045 | 0.913 ± 0.054 | 0.941 ± 0.055 | 0.892 ± 0.06 | 0.895 ± 0.065 | 0.889 ± 0.069 | 0.873 ± 0.07 | 0.884 ± 0.072 |
| J3QL06 and related entries (UniProt Q9Y4L1) | 0.913 ± 0.088 | 0.942 ± 0.093 | 0.926 ± 0.095 | 0.877 ± 0.087 | 0.859 ± 0.084 | 0.89 ± 0.087 | 0.88 ± 0.091 | 0.88 ± 0.088 |
| G5E9W9 and related entries (UniProt Q9NUV9) | 0.991 ± 0.056 | 1 ± 0.044 | 0.975 ± 0.092 | 0.938 ± 0.082 | 0.932 ± 0.099 | 0.932 ± 0.1 | 0.903 ± 0.064 | 0.896 ± 0.073 |
| H3BT12 and related entries (UniProt Q9UK73) | 1.07 ± 0.2 | 1.06 ± 0.097 | 1.13 ± 0.058 | 1.11 ± 0.15 | 1.04 ± 0.16 | 1.07 ± 0.26 | 1.06 ± 0.23 | 1.03 ± 0.28 |
| I3L397 and related entries (UniProt P63241) | 0.931 ± 0.11 | 0.928 ± 0.096 | 0.831 ± 0.078 | 0.833 ± 0.034 | 0.812 ± 0.043 | 0.832 ± 0.055 | 0.771 ± 0.087 | 0.798 ± 0.048 |
| H0YBW3 and related entries (UniProt Q9NVR2) | 1.1 ± 0.049 | 0.938 ± 0.17 | 1.19 ± 0.22 | 1.04 ± 0.17 | 1.3 ± 0.32 | 1.04 ± 0.07 | 1.27 ± 0.21 | 0.996 ± 0.12 |
| H7C1N3 and related entries (UniProt O15155) | 0.982 ± 0.089 | 0.946 ± 0.081 | 1.04 ± 0.15 | 0.967 ± 0.063 | 0.971 ± 0.044 | 0.921 ± 0.036 | 0.874 ± 0.048 | 0.94 ± 0.051 |

Retrieved one by one from above, two records:

| Target | NP40-soluble protein abundance (concentration: 0.1mM) | NP40-soluble protein abundance (concentration: 0.5mM) | NP40-soluble protein abundance (concentration: 1mM) | NP40-soluble protein abundance (concentration: 2mM) | NP40-soluble protein abundance (concentration: 4mM) | NP40-soluble protein abundance (concentration: 6mM) | NP40-soluble protein abundance (concentration: 8mM) | NP40-soluble protein abundance (concentration: 10mM) |
| --- | --- | --- | --- | --- | --- | --- | --- | --- |
| H3BU04 and related entries (UniProt Q9BVW5) | 0.848 ± 0.15 | 0.761 ± 0.13 | 0.964 ± 0.068 | 0.987 ± 0.041 | 0.941 ± 0.1 | 0.981 ± 0.11 | 0.834 ± 0.16 | 1.01 ± 0.081 |
| J3KQL8 and related entries (UniProt Q9BQE5) | 0.987 ± 0.019 | 1.01 ± 0.041 | 0.984 ± 0.054 | 0.956 ± 0.058 | 0.917 ± 0.044 | 0.982 ± 0.05 | 0.957 ± 0.045 | 0.928 ± 0.051 |
